Reference: the supplement of paper PMC5949888
Most values lie at the floor of the assay. Slopes are relative: functional sequences can read slightly below zero.

tested on: Saccharomyces cerevisiae PS128 hsf1 delta, HSF1(1-493) fusion; assay: growth estimate (transactivation domain function in HSF1 fusion, heat-shock survival) (a.u. (slope of normalised read count over time)); higher = stronger growth at 37°C, i.e. more transactivation activity; conditions: library: random library

Substance	growth estimate
CCNKEKHQDRRARTFSDLAE	< -0.25
PGTD	< -0.25
MGIFTFLYSEEPRT	-0.245
RSPARSVCANRKTYFVLRHN	< -0.25
GSTSVTRFVAGCLSTLSNLA	< -0.25
ETTMCRKTKHTNRPGAICGA	< -0.25
QLG	< -0.25
RSWI	-0.243
NPPSAYGQDIPTLWSAQEYS	< -0.25
CLERWIRGRKFAWMQCLETR	< -0.25
THKSSR	< -0.25
VGPLWGMTSSTGSGVSSLFT	< -0.25
SSIDSGPHPSVDGAATTHMP	< -0.25
CAYRYL	< -0.25
DLNRGVLSNEGAHSKIVLAS	< -0.25
YCPGQSSYYLITWEPLIKRC	< -0.25
LISTSGFDLRQSSRGFTLHV	< -0.25
TDQHRPVLQGRGAEGATPAT	< -0.25
VDLGTSPPLRRNISCYLIDQ	< -0.25
SRWPGDTLTTAYLITVYPSV	< -0.25
FKKTPDYLQTGMVQSLLFKG	< -0.25
QLQRVRWIPSTARPRCSGLH	< -0.25
MGFCPTPPYRREAICFTTER	< -0.25

Substance	growth estimate
GGPLIYIV	< -0.25
ERRHPNDRRPFRSA	< -0.25
GIIFWDFCTSTHVTINQKTE	< -0.25
VVCSARIEEGLLTTPICLVG	< -0.25
RVQGGSFCSSV	< -0.25
SRTSSAAGE	< -0.25
VDRGWESLNYGNAVTFKKFQ	< -0.25
SIFVLRVNKYTRGHYHRVRC	< -0.25
KRQNGLEVSVTSHVQCLLRQ	< -0.25
RKVAEKIPIILADHREHIAD	< -0.25
MRRVRLI	< -0.25
NHPLSGKSTRSLACTPGWYG	< -0.25
TVVVDCGFIRGLQRDVRPS	< -0.25
HSWF	< -0.25
YDRCCRHPGARAGDHIPAVP	< -0.25
GMDATMSHAGEYEQP	< -0.25
LLGSQAVKRVLDTVLLGSSR	< -0.25
ANIRLTGLKQFS	-0.246
CAAA	< -0.25
WYTVHERSPLD	< -0.25
LAS	< -0.25
DQPSRGASEKWSPG	< -0.25
SRFQ	< -0.25

4 entries drawn at random from those above, as already listed:
Substance	growth estimate
HSWF	< -0.25
GMDATMSHAGEYEQP	< -0.25
GIIFWDFCTSTHVTINQKTE	< -0.25
NHPLSGKSTRSLACTPGWYG	< -0.25

A portion taken from the entries so far, for reference:
Substance	growth estimate
GMDATMSHAGEYEQP	< -0.25
LLGSQAVKRVLDTVLLGSSR	< -0.25

The list goes on.

Substance	growth estimate
LCV	< -0.25
YHGVEGTTLLYYDFIIKHAG	< -0.25
HRCWGNKARRKLGRPNWPRV	< -0.25
CFSVRQLVGVPFPSVTGTAR	< -0.25
RHVSTA	< -0.25
VTWLF	< -0.25
SCGVV	< -0.25
MYDSLLRSRIRITVVARSRD	< -0.25
LNRVECSCTVIRCVIPTPKV	< -0.25
AFYEG	< -0.25
LGRGTLVLS	< -0.25
GYQAGLGIGPKTTVDSEWIW	-0.183
LRDDVLCRCGYGSTYLKKVP	< -0.25
LRRSLSGEGRLLRIGG	< -0.25
PCFYVQRPYSSLRRLNCHVK	< -0.25
IFLTNNVTR	< -0.25
IQGLQEGSPK	< -0.25
KSEWSWVAPRLVSR	< -0.25
CWPSATTYSPGWAKGLTRRG	< -0.25
FGKIT	< -0.25
ALGTSR	< -0.25
QTKLGLGISSYGPRF	< -0.25
DSQLDYWLKFKLRRSRRSQA	-0.24

Substance	growth estimate
TPIQDHASCWVRGSTLMIDA	< -0.25
HAGLLATIMPLVEPG	< -0.25
TVVREGSGGN	< -0.25
DGTYGYMESRRHTLAVVGAV	< -0.25
GGWPLTSGSQ	< -0.25
VALP	-0.248
LYNSEVLVLRTDI	< -0.25
AKYQCQRL	< -0.25
DIRRGGVAQEILVTRSGISN	< -0.25
LLSLKRRPWFLEGRISDPAR	< -0.25
EAELCRTPLHEV	< -0.25
WKNIGFNFL	< -0.25
CKEMMCRARRDIDGKEIGLC	< -0.25
EIQS	< -0.25
IRSVGGGVGLGPPTKRNCK	< -0.25
QYSELTSGEVSPARWEYLT	< -0.25
TLSMVQMDIREGRYSRGASP	< -0.25
AGAHR	< -0.25
QSCRMNQITLMSTWMYRGFV	< -0.25
NRV	< -0.25
TRRFDHLVSPCSG	< -0.25
RFSLGRMC	< -0.25
SNVLLG	< -0.25

Substance	growth estimate
LPQQIMWLQPALLHSLNLLS	< -0.25
HDTTLGWKSLSQLSGIFPSS	-0.245
VQWEGIRPVDMYTRITYGSF	< -0.25
IIVLG	< -0.25
RRHNCSDLGFSLMSENCLLP	< -0.25
RICSLGLNGRLAASERDQTS	< -0.25
ISMQDQVNYVVFLSGRDCSP	< -0.25
GLLESKFNSTLPSPFWSGVN	< -0.25
RTVEPVELIGELVGS	< -0.25
MLWSHPRCQSNKVCMHYALG	-0.243
HGHPRNGWTSG	< -0.25
SDGIERGQALL	< -0.25
AYLVGLRKAVSSLNPNSLSC	< -0.25
RYTQPCGRSQNNMASSSVTQ	< -0.25
DSPLGGL	-0.239
ITGDE	< -0.25
GLILLSQPRKFCLEPKGGRP	< -0.25
CWPSGRKNSNPQLGTSVLTG	< -0.25
LVAFQMVNVLKSSS	< -0.25
PSSEADARCLACPGLLAIVT	< -0.25
HWSKNG	-0.191
WSSRNAVS	< -0.25
GSCFSFTIHPRTRRKMRG	< -0.25

Substance	growth estimate
GGRIKGWDESAPELLWIS	< -0.25
QCRYGVGECTRVFMVTGN	< -0.25
CQLILTTSTAPLKLVRILRL	-0.245
VQVVRGEAAMGGLKHEK	< -0.25
HSMYGIHSVGWAHGAQTGCA	< -0.25
DTSAC	< -0.25
RGNR	< -0.25
GTDPDVRVRSDSEL	< -0.25
PARCYA	< -0.25
RDVGYNVHIRSRKGRPA	< -0.25
VLEWSDAFL	< -0.25
NPSRSGSRPASKPTLVFVGP	< -0.25
YGGEPHARRRGLCHVARA	< -0.25
VSRTRLRRRRTQNPF	< -0.25
DAFSLAQSARGG	< -0.25
RSGTIIRRRSASAYGWATKY	< -0.25
LLGATTHRYKDAGVYEIRGT	< -0.25
TRTTSRCMW	< -0.25
PANCQTAGDSGPRCAVNLAG	< -0.25
PSGEGELDPIASRGSMDPGI	< -0.25
IAAIVSQEATL	< -0.25
QREATKLVRQEGVPLTARSP	< -0.25
NVLAQEVLGTSIFGAHELTN	< -0.25

Substance	growth estimate
VIAGNGIYPV	< -0.25
TVLNGQMERAWVALLTSNRL	< -0.25
SMLVRRWTANRSTINRVFSM	< -0.25
LQKLC	< -0.25
CTSIGSLSHQHFRCRWT	< -0.25
PWRTISCLLNIRLALQFQ	-0.145
FSSMQAARPHLGLDVC	-0.243
PSRVF	< -0.25
LPMRCAHLSERLIPTYAEAY	< -0.253
ADGHSAPLGRPGDRFFGVMV	< -0.25
RLRDLRHNGRKDKCLRSDRG	< -0.25
VDVCVESRPWWTE	< -0.25
GII	< -0.25
ATWHMRTLPSGGHTGVILDP	< -0.25
KPRHE	< -0.25
NLTGTTAPPRAAVDVHDRQC	< -0.25
IFTSAMRIIRTS	< -0.25
GYYIEFQV	< -0.25
IAKGIKGRTGSL	< -0.25
ISNEIPGLGNFLAIPAHVSG	-0.229

Individual results from the list.
Under growth estimate, NLTGTTAPPRAAVDVHDRQC is entered as < -0.25
Under growth estimate, GII is entered as < -0.25
